Source: publication PMC4723226

T1: Flag-SMYD1 (not stated (human or mouse cDNA cloned)) (UniProt Q8NB12)
T1 sequence: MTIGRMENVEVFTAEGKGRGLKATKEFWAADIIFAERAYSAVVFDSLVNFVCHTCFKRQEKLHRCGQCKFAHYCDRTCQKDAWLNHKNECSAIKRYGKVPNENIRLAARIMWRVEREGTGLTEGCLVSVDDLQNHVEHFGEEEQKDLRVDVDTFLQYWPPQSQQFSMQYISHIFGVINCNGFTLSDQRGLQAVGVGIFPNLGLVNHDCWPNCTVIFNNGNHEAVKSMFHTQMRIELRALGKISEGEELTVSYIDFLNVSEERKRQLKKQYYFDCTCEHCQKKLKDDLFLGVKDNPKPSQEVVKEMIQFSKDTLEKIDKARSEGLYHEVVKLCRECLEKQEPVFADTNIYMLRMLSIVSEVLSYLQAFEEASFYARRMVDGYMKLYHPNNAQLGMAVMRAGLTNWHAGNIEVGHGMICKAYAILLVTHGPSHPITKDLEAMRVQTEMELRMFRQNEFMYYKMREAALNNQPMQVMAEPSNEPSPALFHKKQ


Legend:
[1] = molecular target: T1, Flag-SMYD1 (not stated (human or mouse cDNA cloned)); assay: co-IP; 293T cells transfected with Flag-SMYD1 and HA-SRF constructs (whole or deletion mutants); lysates immunoprecipitated with anti-Flag (Fig 4A also anti-HA) antibody; western blot with anti-HA or anti-Flag
[2] = molecular target: Flag-SMYD1 N-terminus domain (deletion mutant) (not stated (human or mouse cDNA cloned)); assay: as above

binding [1] | binding [2] | Molecule
binds |  | HA-SRF-N (SRF N-terminus domain) (domain or fragment)
 | binds | HA-SRF (protein, UniProt P11831 1-508) MLPTQAGAAAALGRGSALGGSLNRTPTGRPGGGGGTRGANGGRVPGNGAGLGPGRLEREAAAAAATTPAPTAGALYSGSEGDSESGEEEELGAERRGLKRSLSEMEIGMVVGGPEASAAATGGYGPVSGAVSGAKPGKKTRGRVKIKMEFIDNKLRRYTTFSKRKTGIMKKAYELSTLTGTQVLLLVASETGHVYTFATRKLQPMITSETGKALIQTCLNSPDSPPRSDPTTDQRMSATGFEETDLTYQVSESDSSGETKDTLKPAFTVTNLPGTTSTIQTAPSTSTTMQVSSGPSFPITNYLAPVSASVSPSAVSSANGTVLKSTGSGPVSSGGLMQLPTSFTLMPGGAVAQQVPVQAIQVHQAPQQASPSRDSSTDLTQTSSSGTVTLPATIMTSSVPTTVGGHMMYPSPHAVMYAPTSGLGDGSLTVLNAFSQAPSTMQVSHSQVQEPGGVPQVFLTASSGTVQIPVSAVQLHQMAVIGQQAGSSSNLTELQVVNLDTAHSTKSE

These are yes or no findings as the source states them, for the method shown. In cells and extracts the contact can be indirect. Binding calls can cover weak binding; strength is not graded here. Tags and fused reporters may be left off the sequences shown.
